# Laboratory results: PMC11110260
# Protein sequences, listed by entry. Tags and fused reporters are not part of them.
# UniProt Q92466: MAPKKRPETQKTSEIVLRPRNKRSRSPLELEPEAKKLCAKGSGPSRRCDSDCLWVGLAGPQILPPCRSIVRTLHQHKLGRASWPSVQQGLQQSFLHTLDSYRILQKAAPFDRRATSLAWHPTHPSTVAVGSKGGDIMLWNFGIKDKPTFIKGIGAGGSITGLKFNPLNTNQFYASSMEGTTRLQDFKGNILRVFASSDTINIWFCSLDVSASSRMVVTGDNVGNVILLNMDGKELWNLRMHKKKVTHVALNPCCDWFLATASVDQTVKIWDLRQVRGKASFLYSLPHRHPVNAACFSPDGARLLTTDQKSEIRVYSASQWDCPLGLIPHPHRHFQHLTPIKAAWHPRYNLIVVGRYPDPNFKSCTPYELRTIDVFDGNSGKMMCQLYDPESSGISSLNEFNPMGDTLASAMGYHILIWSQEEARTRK
# UniProt Q04206: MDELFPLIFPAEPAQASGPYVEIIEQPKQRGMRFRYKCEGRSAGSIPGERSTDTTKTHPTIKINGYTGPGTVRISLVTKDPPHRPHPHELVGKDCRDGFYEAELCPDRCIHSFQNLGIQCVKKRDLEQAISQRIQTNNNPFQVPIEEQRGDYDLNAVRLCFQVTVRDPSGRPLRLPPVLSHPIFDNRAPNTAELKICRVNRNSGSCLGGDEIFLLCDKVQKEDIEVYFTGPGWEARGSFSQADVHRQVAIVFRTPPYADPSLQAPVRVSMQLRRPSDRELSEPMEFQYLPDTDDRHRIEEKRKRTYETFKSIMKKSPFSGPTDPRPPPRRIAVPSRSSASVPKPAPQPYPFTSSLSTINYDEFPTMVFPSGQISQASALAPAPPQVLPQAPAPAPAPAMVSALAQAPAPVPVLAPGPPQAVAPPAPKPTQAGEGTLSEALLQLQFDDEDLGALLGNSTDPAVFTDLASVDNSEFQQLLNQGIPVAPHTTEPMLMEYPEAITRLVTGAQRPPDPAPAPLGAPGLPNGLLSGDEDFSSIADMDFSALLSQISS
# No constants are given. Whether binding was seen depends on the method and setting. In cells and extracts the contact can be indirect. Some binding calls cover weakened binding; strength is not graded here.
# Biological target: DDB2^Wt (DNA-Damaged Binding protein 2, wild type), His-tagged (UniProt Q92466)
# Experiment: pull-down; lysates of HEK293 stable clones 7 d after UV-C irradiation (hypotonic buffer: 10 mM Tris-HCl pH 7.4, 2.5 mM MgCl2, 0.5% NP-40, 10 mM imidazole; sonicated), incubated with Ni-NTA resin overnight at 4 °C; His-tagged DDB2 held on the resin; washed with 50 mM Tris-HCl pH 7.4; Western blot with anti-NF-kB p65 and anti-DDB2
substance,measurement,value
NF-kB (detected with anti-NF-kB p65) (from UniProt Q04206 1-551),binding,binds
